Percent effect of library compounds

Sequences of proteins named here, by UniProt entry; tags and fusion partners are left off. Residues count along the entry.
UniProt I6X8D2, whole entry: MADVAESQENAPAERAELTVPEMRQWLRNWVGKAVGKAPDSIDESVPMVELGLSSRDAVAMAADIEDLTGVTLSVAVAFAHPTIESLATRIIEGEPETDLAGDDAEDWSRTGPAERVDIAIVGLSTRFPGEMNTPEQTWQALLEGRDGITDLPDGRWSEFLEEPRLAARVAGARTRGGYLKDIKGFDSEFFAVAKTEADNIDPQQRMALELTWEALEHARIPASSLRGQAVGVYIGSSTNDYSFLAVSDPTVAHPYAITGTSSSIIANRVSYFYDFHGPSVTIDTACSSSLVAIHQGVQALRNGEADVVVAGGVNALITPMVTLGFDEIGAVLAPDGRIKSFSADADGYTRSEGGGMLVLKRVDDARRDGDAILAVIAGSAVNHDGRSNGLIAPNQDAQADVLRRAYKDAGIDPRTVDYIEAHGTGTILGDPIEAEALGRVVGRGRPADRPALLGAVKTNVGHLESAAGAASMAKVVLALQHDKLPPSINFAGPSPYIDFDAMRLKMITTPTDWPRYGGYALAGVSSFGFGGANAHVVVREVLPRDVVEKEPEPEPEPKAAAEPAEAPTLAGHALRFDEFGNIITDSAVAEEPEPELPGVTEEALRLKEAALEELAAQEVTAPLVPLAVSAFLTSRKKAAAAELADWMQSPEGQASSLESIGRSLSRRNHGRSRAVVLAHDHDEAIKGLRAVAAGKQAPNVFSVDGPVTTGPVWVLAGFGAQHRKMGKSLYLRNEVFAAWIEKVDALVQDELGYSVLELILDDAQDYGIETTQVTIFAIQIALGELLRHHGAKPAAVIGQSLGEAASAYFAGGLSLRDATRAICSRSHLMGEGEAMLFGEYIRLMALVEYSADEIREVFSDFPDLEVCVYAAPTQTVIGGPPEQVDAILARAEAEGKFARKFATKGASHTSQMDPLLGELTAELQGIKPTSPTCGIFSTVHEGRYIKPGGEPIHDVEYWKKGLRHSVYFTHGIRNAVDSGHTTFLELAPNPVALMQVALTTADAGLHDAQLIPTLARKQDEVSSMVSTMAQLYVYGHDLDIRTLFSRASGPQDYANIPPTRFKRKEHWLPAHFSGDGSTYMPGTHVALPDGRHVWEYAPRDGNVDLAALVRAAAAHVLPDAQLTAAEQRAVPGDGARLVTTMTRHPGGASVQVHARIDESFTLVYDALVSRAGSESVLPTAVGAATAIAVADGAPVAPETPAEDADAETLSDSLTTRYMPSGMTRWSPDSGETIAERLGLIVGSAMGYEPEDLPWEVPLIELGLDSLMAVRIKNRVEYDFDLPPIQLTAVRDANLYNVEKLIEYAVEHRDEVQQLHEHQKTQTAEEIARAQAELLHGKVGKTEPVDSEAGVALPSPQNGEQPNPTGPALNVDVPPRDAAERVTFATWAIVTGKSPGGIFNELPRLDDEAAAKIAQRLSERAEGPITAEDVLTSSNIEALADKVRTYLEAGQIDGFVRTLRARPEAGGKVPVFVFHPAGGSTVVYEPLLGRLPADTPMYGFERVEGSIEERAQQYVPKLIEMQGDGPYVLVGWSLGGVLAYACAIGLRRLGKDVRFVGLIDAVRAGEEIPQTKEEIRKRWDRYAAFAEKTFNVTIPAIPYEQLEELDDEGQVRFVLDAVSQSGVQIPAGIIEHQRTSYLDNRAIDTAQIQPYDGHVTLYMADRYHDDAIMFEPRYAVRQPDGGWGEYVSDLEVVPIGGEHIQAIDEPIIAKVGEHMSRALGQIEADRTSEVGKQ
UniProt A4I591, 1-473: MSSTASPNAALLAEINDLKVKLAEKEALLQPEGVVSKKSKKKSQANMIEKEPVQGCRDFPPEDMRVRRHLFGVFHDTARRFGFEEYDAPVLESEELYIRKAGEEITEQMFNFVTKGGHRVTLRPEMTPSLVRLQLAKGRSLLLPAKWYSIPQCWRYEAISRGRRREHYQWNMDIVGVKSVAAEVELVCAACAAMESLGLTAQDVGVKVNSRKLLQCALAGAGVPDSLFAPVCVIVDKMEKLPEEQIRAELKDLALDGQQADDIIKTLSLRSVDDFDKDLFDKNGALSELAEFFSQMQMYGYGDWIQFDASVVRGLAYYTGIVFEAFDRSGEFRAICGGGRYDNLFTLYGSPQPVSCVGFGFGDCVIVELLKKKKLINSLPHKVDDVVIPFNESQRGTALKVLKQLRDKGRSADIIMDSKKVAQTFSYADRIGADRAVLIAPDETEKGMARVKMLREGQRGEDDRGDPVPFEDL

The filed quantity is “Percent Effect” (%).
The record does not define 0% and 100%; most values in the screen are far below 50% and negative numbers occur (in some assays of this library far below -100).
The compounds are a random part of those screened.

Pks13 thioesterase: 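Enzyme assay of the thioesterase domain of polyketide synthase 13; the read-out is not stated. Target: Polyketide synthase Pks13, Mycobacterium tuberculosis (UniProt I6X8D2). Tested at 30 µM. Higher reads as stronger inhibition (inferred from which compounds were picked for retests). Size under these conditions: about 67,000 compounds, about 300 of them at 50% or above in at least one test.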
LiHisRS: 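Histidine-tRNA ligase, Leishmania infantum (UniProt A4I591). Enzyme assay of histidyl-tRNA synthetase; the read-out is not stated. Concentration: 30 µM. Higher reads as stronger inhibition (inferred: compounds with an IC50 in retests scored well above the rest). The assay is labelled LdHisRS but filed under L. infantum. Size under these conditions: about 69,000 compounds, about 410 of them at 50% or above in at least one test.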

Result for COc1ccc(N2CCN(C(=O)COc3nccc(C)n3)CC2)cc1 was Pks13 thioesterase: -4.427%; LiHisRS: 15.73%.
Result for CC(=O)N1CCC(N2CC(Cc3nccc4ccn(C)c34)C2)CC1 was Pks13 thioesterase: 10.54%; LiHisRS: 44%.
Result for COCC(=O)N1CCCC1c1cccc(Cc2ccccc2F)n1 (centres undefined) was Pks13 thioesterase: 12.87%; LiHisRS: 13.54%.
Result for CN1CCOC(C(=O)Nc2nnc(Cc3ccc(F)cc3)[nH]2)C1 (centres undefined) was Pks13 thioesterase: -29.94%; LiHisRS: 9.211%.
Result for CCOc1nnc(CNC2CCCN(c3ccc(C)nn3)C2)s1 (centres undefined) was Pks13 thioesterase: 41.29%; LiHisRS: 54.76%.
Result for COCc1cccc(NC(C)C(=O)N(C)Cc2cccc(F)c2)c1 (centres undefined) was Pks13 thioesterase: -6.7%; LiHisRS: 7.547%.
Result for CCCc1nc(N2CC[C@@H](c3ccc4c(c3)OCO4)[C@H](O)C2)no1 was Pks13 thioesterase: -5.989%; LiHisRS: 11.29%.
Result for Cc1ncc(-c2ccnc(NCCc3ccc(F)cc3)n2)c(=O)[nH]1 was Pks13 thioesterase: 28.69%; LiHisRS: 20%.
Result for CN(Cc1cn2ccccc2n1)C1CCCN(c2cccnn2)C1 (centres undefined) was Pks13 thioesterase: 7.092%; LiHisRS: 12.5%.
Result for CCC(C)NC(=O)Cn1c(Nc2cc(C)cc(C)c2)nc(C)cc1=O (centres undefined) was Pks13 thioesterase: -4.353%; LiHisRS: 6.522%.
Result for CC1c2ncc(COCC3CC3)n2CCN1C(=O)c1ccnnc1 (centres undefined) was Pks13 thioesterase: 0.9876%; LiHisRS: 20%.
Result for CC(C(=O)NC1CCCCC1)N1CCc2[nH]nc(C(F)(F)F)c2C1 (centres undefined) was Pks13 thioesterase: 36.72%; LiHisRS: 15.18%.
Result for Cc1ccccc1-c1cccc(CN2C[C@H]3C(=O)NC[C@@]3(C(=O)O)C2)c1 was Pks13 thioesterase: -2.474%; LiHisRS: 0%.
Result for c1cncc(CN(CCCn2ccnc2)CC2CCOC2)c1 (centres undefined) was Pks13 thioesterase: -32.57%; LiHisRS: 2.797%.
Result for Cc1ccc(CN2CCn3c(CN4CCN(C)CC4)cnc3C2C)s1 (centres undefined) was Pks13 thioesterase: -47.82%; LiHisRS: 5.556%.
Result for CC(=O)N1CCCC1c1cccc(Oc2ccccc2F)n1 (centres undefined) was Pks13 thioesterase: -2.4%; LiHisRS: 2.062%.
Result for Cc1ccc(N2CCCC(NC(=O)Cc3csc(C)n3)C2=O)cc1 (centres undefined) was Pks13 thioesterase: -17.81%; LiHisRS: 18.31%.
Result for COCC1COCCC12CCN(S(=O)(=O)c1ccccc1C)CC2 (centres undefined) was Pks13 thioesterase: -7.311%; LiHisRS: -1.923%.
Result for CC(=O)c1cnc(NCCc2csc(-c3cnccn3)n2)nc1C was Pks13 thioesterase: -19.23%; LiHisRS: 21.49%.
Result for Cc1nn(C)c(C)c1C1CCCN1C(=O)CCCn1cccn1 (centres undefined) was Pks13 thioesterase: -5.178%; LiHisRS: 1.515%.
Result for CC(C)N(CC(N)=O)C(=O)c1cc(F)ccc1N1CCN(C)CC1 was Pks13 thioesterase: -0.9553%; LiHisRS: -2.174%.
Result for Cc1cc(C)n(CC2CCCCN2C(=O)c2sccc2C#N)n1 (centres undefined) was Pks13 thioesterase: -21.74%; LiHisRS: 5.128%.
Result for Cc1cccnc1N1CCC(c2nccn2Cc2cscn2)CC1 was Pks13 thioesterase: -27.86%; LiHisRS: 15.62%.
Result for COc1cc(N2CC[C@@H](OC)[C@@H]2Cc2ccccc2)ncn1 was Pks13 thioesterase: -6.385%; LiHisRS: 14.04%.
Result for COc1ccc(-c2n[nH]c(C)c2CC(=O)NCCN2CCOCC2)cc1 was Pks13 thioesterase: 8.658%; LiHisRS: 13.04%.
Result for CSCC[C@@H](CO)Nc1nc(-c2ccccn2)nc2c1c(C)nn2C was Pks13 thioesterase: -29.42%; LiHisRS: 19.74%.
Result for CN(CCO)Cc1nnc(C2CCN(C(=O)c3cc[nH]c3)CC2)n1C was Pks13 thioesterase: -34.47%; LiHisRS: 8.333%.
Result for CC1(C)CNC(=O)c2nc(C3CCCN(S(C)(=O)=O)C3)[nH]c2C1 (centres undefined) was Pks13 thioesterase: -5.687%; LiHisRS: 16.13%.
Result for CCN(CC1CCOC1)C(=O)Nc1ccc(-n2cncn2)nc1 (centres undefined) was Pks13 thioesterase: 4.295%; LiHisRS: 12.77%.
Result for Cc1cc(NC(=O)CN2CCCC2c2noc(C3CC3)n2)n(C)n1 (centres undefined) was Pks13 thioesterase: -7.391%; LiHisRS: 0%.
Result for Cc1nc(C2CCN(C[C@H](C)CO)CC2)cc(N2CCOCC2)n1 was Pks13 thioesterase: -12.27%; LiHisRS: 5.556%.
Result for COc1cc(N2CC[C@@H]3O[C@@H](c4ccncn4)C[C@H]3C2)ncn1 was Pks13 thioesterase: -11.58%; LiHisRS: 14.53%.
Result for Cc1nn(C)c(C)c1CN(C(=O)c1cc(Cl)c[nH]c1=O)C(C)C was Pks13 thioesterase: -36.64%; LiHisRS: 4.167%.
Result for COc1cccc(CN2CCOC(Cn3nc(C)cc3C)C2)c1 (centres undefined) was Pks13 thioesterase: -9.617%; LiHisRS: 15.38%.
Result for Cc1nn(C(C)C)c(C)c1CN1CCN(C2CCCCC2)C(=O)C1 was Pks13 thioesterase: -5.366%; LiHisRS: 9.79%.
Result for O=C1NC(c2ccccc2)=N[C@@]12CC[C@@H]1CN(Cc3ccccc3)C[C@@H]12 was Pks13 thioesterase: -9.716%; LiHisRS: 20.75%.
Result for Cc1cnc2c(c1)N(C(=O)c1ccc(=O)n(C)c1)CCO2 was Pks13 thioesterase: 8.079%; LiHisRS: -4%.
Result for CC(C)n1nc(CN2CCCC2=O)c2c1CN(C(=O)c1ccc[nH]1)C2 was Pks13 thioesterase: 0.2134%; LiHisRS: -2.703%.
Result for Cc1cc(N(C)C)nc(C2COCCN2Cc2nccn2C)n1 (centres undefined) was Pks13 thioesterase: -8.306%; LiHisRS: 8.054%.
Result for CCCn1ncnc1C(C)NC(=O)C1CCN(C(=O)C2CC2)CC1 (centres undefined) was Pks13 thioesterase: -27.64%; LiHisRS: 22.37%.
Result for COc1cc(C(=O)N2CC3(CCNCC3)c3cc(Cl)ccc32)ccn1 was Pks13 thioesterase: -8.008%; LiHisRS: -21.1%.
Result for CN1CCC(CNC(=O)NCc2ccc(F)cc2)CC1 was Pks13 thioesterase: 0.07359%; LiHisRS: 24.39%.
Result for COc1nc(C)c(C(=O)N2CCc3[nH]nc(C4CCCC4)c3C2)s1 was Pks13 thioesterase: -32.68%; LiHisRS: 2.857%.
Result for CN(C)S(=O)(=O)N1CCN(c2nccc(C(F)(F)F)n2)CC1 was Pks13 thioesterase: -5.941%; LiHisRS: 19.23%.
Result for COCCCNc1nccc(-c2c[nH][nH]c2=O)n1 was Pks13 thioesterase: 8.079%; LiHisRS: -12.16%.
Result for CCc1noc(CN2CCCN(Cc3cccs3)CC2)n1 was LiHisRS: -21.15%.

The last 4 entries again:

* COc1nc(C)c(C(=O)N2CCc3[nH]nc(C4CCCC4)c3C2)s1 | Pks13 thioesterase: -32.68%; LiHisRS: 2.857%
* CN(C)S(=O)(=O)N1CCN(c2nccc(C(F)(F)F)n2)CC1 | Pks13 thioesterase: -5.941%; LiHisRS: 19.23%
* COCCCNc1nccc(-c2c[nH][nH]c2=O)n1 | Pks13 thioesterase: 8.079%; LiHisRS: -12.16%
* CCc1noc(CN2CCCN(Cc3cccs3)CC2)n1 | LiHisRS: -21.15%

From ChEMBL document CHEMBL3988442, “University of Dundee, Small-Polar-MMV Screening Library” (2021).